The list shows a part of the results.
target: OsWRKY34 (Oryza sativa, UniProt Q0JBA9 1-250); assay: protein-binding microarray (RPBM); PBS, 2% BSA, 51.3 ng/ul salmon testes DNA, 50 uM zinc acetate, 200 nM TF, 25 C, 1 h; high values mean tight binding; conditions: protein: recombinant; tags: N-terminal polyhistidine and DsRed monomer fusion (pET32a); label: CyDye5-dUTP incorporated in the synthesized complementary strand; 3' TTTTT single-stranded linker to array surface; dsDNA, one strand shown
Method in brief: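 Ni–NTA purification followed expression in E. coli BL21-CodonPlus of transcription factors fused N-terminally to a polyhistidine tag and DsRed. At 200 nM in PBS with 2% BSA, salmon testes DNA and 50 µM zinc acetate, the protein was incubated for 1 h at 25 °C with a custom Agilent array that had been primer-extended with Cy5-dUTP and blocked with 2% BSA. After washing, the array was read on an Axon 4000B scanner. The binding signal is per-feature fluorescence intensity in arbitrary units.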

Sequences of proteins named here, by UniProt entry; tags and fusion partners are left off.
UniProt Q0JBA9, entry or part of it: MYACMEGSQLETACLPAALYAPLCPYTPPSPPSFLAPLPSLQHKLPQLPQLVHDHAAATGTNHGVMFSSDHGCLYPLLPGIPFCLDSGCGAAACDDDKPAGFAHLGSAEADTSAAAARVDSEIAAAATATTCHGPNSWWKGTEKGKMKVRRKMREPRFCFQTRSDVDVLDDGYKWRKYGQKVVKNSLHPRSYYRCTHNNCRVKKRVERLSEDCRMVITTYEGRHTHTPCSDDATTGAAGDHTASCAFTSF

| Sequence | binding signal |
| --- | --- |
| GAAAGAGAGAAGAGTGTTGCTAATGGAGTGTTCTTGTTCACGGAGTCACCTAGTGCAG | 8090 fluorescence intensity (a.u.) |
| AGCGCGCGCAGCTTTGCAGGCGTGGTCGGGGTCGTTGTGCCGGAGTCACCTAGTGCAG | 9700 fluorescence intensity (a.u.) |
| TCGTAGGGGTAGAGTTTGCGTGCGTGTGTTCATAGGGGTGCGGAGTCACCTAGTGCAG | 8600 fluorescence intensity (a.u.) |
| GCCGCTAGTCCTTATCGCCGCCGCCGCCCACCTCGCCATGCGGAGTCACCTAGTGCAG | 9030 fluorescence intensity (a.u.) |
| ATGGACCTGAAAGCTGTTTACCTTTTTTTCCATCCTAATCCGGAGTCACCTAGTGCAG | 8770 fluorescence intensity (a.u.) |
| CGTTTTTTTTTTCATTCCATGTTTGCATTAGCTTCATTTCCGGAGTCACCTAGTGCAG | 13400 fluorescence intensity (a.u.) |
| ATTACCTTGTCACAGACAGCTCGCCGCACTTTCTCCCGAACGGAGTCACCTAGTGCAG | 10400 fluorescence intensity (a.u.) |
| TTTTGTTCATTTACATTCAGCAAACAGTATCCGGTTTGTACGGAGTCACCTAGTGCAG | 10700 fluorescence intensity (a.u.) |
| TGGTATTGGGATTTGAATGCCTTTTTGTCAATTGTCCCTTCGGAGTCACCTAGTGCAG | 9280 fluorescence intensity (a.u.) |
| ACCTTACCACAACTGCTGCACCTAATTCAAACCAACCAAACGGAGTCACCTAGTGCAG | 8540 fluorescence intensity (a.u.) |
| TGGTGTGTTTTTTGGGATGTTTCGGTAGGTATTTTGTGATCGGAGTCACCTAGTGCAG | 12000 fluorescence intensity (a.u.) |
| GTTTTTATGATTTCCTATTCGTCCATTATTTTCTTTTTAACGGAGTCACCTAGTGCAG | 9940 fluorescence intensity (a.u.) |
| ATGGATTTTTTTATTTTTTCTCCCTTTTTCCTTCTTTTTTCGGAGTCACCTAGTGCAG | 8690 fluorescence intensity (a.u.) |
| GCATATGAGTCCATGTGTCGATCACCACGTCACGATGACTCGGAGTCACCTAGTGCAG | 8110 fluorescence intensity (a.u.) |
| CCCCACTTTGGCATGTATATAAGCACACCCAAGCTATCCTCGGAGTCACCTAGTGCAG | 8040 fluorescence intensity (a.u.) |
| AGGCCCGCGACATCTGCACCGCCTTCCCCAATGTAACTTACGGAGTCACCTAGTGCAG | 8080 fluorescence intensity (a.u.) |
| TTGCTCTTCTTTTTTCAGTAGTATTTTTTCCCCTGGGTGACGGAGTCACCTAGTGCAG | 8150 fluorescence intensity (a.u.) |
| ATTTCTTGCTTCTACTTTATTTTCTGAATTATGCTGATATCGGAGTCACCTAGTGCAG | 11000 fluorescence intensity (a.u.) |
| CTTGTTCCTAGCTGCATGCAATACCTTTTCCCATTAAAAACGGAGTCACCTAGTGCAG | 8530 fluorescence intensity (a.u.) |
| GTCCGCTTCTTCTTCGGCCCCGCCATCATGGCCGCCGCGTCGGAGTCACCTAGTGCAG | 8480 fluorescence intensity (a.u.) |
| CGAATCTCAATCCACAGGCTCACACTGATACGCAACGCACCGGAGTCACCTAGTGCAG | 8230 fluorescence intensity (a.u.) |

| Sequence | binding signal |
| --- | --- |
| TTCTTCCCCGCGCGGCCCACGTAGCCCACACGCATACAACCGGAGTCACCTAGTGCAG | 8820 fluorescence intensity (a.u.) |
| GCTTCCCTGCTTTCTACTTCACGTACCGTCATTGATGTACCGGAGTCACCTAGTGCAG | 9580 fluorescence intensity (a.u.) |
| GACCTCTGTTGCGTTTTCCTCACGTCCAACTTCCTCTCAGCGGAGTCACCTAGTGCAG | 11000 fluorescence intensity (a.u.) |
| CCTCGACCGTCCCCAACCGACGACCCCGTGGTCACGCTCCCGGAGTCACCTAGTGCAG | 10900 fluorescence intensity (a.u.) |
| AGACCACCACACAATCACACATGCACATCCATTCAACTTTCGGAGTCACCTAGTGCAG | 13300 fluorescence intensity (a.u.) |
| ACCTGCATCCGATCGGACCAACGCAAACACCGCGATCCCGCGGAGTCACCTAGTGCAG | 8590 fluorescence intensity (a.u.) |
| TCTCCATCTACCACTACTAGTTTATTGTTTGAGAGATTCACGGAGTCACCTAGTGCAG | 8180 fluorescence intensity (a.u.) |
| CCTTCTTCCGGCACGCCTTGCACCGGTTCTTCGCCTTCGTCGGAGTCACCTAGTGCAG | 8550 fluorescence intensity (a.u.) |
| GTCTCCGCCATCGTTGTCGCCGTCGCCTCGCGCCACCACGCGGAGTCACCTAGTGCAG | 8230 fluorescence intensity (a.u.) |
| ACCATTCACTTTTCCTACCTACCTACACTTCTTAACCAATCGGAGTCACCTAGTGCAG | 10600 fluorescence intensity (a.u.) |
| CCCCAAAATTTTCAACGCGCCCTTTCACACTTTCGTGTCGCGGAGTCACCTAGTGCAG | 8650 fluorescence intensity (a.u.) |
| ATGTTGACTCGTTTGCCTGTGTTCCTCTTGCTGCTATTCACGGAGTCACCTAGTGCAG | 19200 fluorescence intensity (a.u.) |
| TCGAGGTCTCGCCTGAGTCCTCATCCTGCCAAGTGCTAGCCGGAGTCACCTAGTGCAG | 8140 fluorescence intensity (a.u.) |
| TTATTCGGGGCAGTTCTTTCTTTGATACACTAACTTTGAGCGGAGTCACCTAGTGCAG | 8600 fluorescence intensity (a.u.) |
| GCCTTGTCGTCTTGGTATTGCACGTTACTACTACTACTAGCGGAGTCACCTAGTGCAG | 11000 fluorescence intensity (a.u.) |
| TCGCCGCTTTTCTCCATTGACACCTTTGTTTCCCATCTCTCGGAGTCACCTAGTGCAG | 11300 fluorescence intensity (a.u.) |
| ACCGCTCACCAACCCCGGCTGCCTCACCGGCTCCGGCCACCGGAGTCACCTAGTGCAG | 8550 fluorescence intensity (a.u.) |
| TATTTAGCATCATTTTTGTTTTTTTTCACAACATATGTAACGGAGTCACCTAGTGCAG | 8410 fluorescence intensity (a.u.) |
| AAAATTATAATGGCATGGTTCCAATTTTCCCCAATTTTTACGGAGTCACCTAGTGCAG | 8310 fluorescence intensity (a.u.) |
| CAAGTATACAACTAGTCATGCACCCTGCAGGTTGACTTTACGGAGTCACCTAGTGCAG | 8360 fluorescence intensity (a.u.) |
| CTCATCGATCAAAGGTTGCCACTTTAATTGCCTTATAATACGGAGTCACCTAGTGCAG | 9570 fluorescence intensity (a.u.) |

10 entries from above, reformatted.
Sequence,binding signal
GACCTCTGTTGCGTTTTCCTCACGTCCAACTTCCTCTCAGCGGAGTCACCTAGTGCAG,11000 fluorescence intensity (a.u.)
AGACCACCACACAATCACACATGCACATCCATTCAACTTTCGGAGTCACCTAGTGCAG,13300 fluorescence intensity (a.u.)
ACCTGCATCCGATCGGACCAACGCAAACACCGCGATCCCGCGGAGTCACCTAGTGCAG,8590 fluorescence intensity (a.u.)
CCTTCTTCCGGCACGCCTTGCACCGGTTCTTCGCCTTCGTCGGAGTCACCTAGTGCAG,8550 fluorescence intensity (a.u.)
GTCTCCGCCATCGTTGTCGCCGTCGCCTCGCGCCACCACGCGGAGTCACCTAGTGCAG,8230 fluorescence intensity (a.u.)
ACCATTCACTTTTCCTACCTACCTACACTTCTTAACCAATCGGAGTCACCTAGTGCAG,10600 fluorescence intensity (a.u.)
ATGTTGACTCGTTTGCCTGTGTTCCTCTTGCTGCTATTCACGGAGTCACCTAGTGCAG,19200 fluorescence intensity (a.u.)
TTATTCGGGGCAGTTCTTTCTTTGATACACTAACTTTGAGCGGAGTCACCTAGTGCAG,8600 fluorescence intensity (a.u.)
ACCGCTCACCAACCCCGGCTGCCTCACCGGCTCCGGCCACCGGAGTCACCTAGTGCAG,8550 fluorescence intensity (a.u.)
CAAGTATACAACTAGTCATGCACCCTGCAGGTTGACTTTACGGAGTCACCTAGTGCAG,8360 fluorescence intensity (a.u.)
